Earlier results in patent publication US9051296B2, “Aryl carboxamide derivatives as TTX-S blockers” (RaQualia Pharma Inc., priority 2009, dated 2015).
Some results were stated once for a whole list of compounds, not compound by compound.

Tested on: TTX-R and TTX-S sodium channels
Details: range given jointly for lidocaine and halothane; mixed units in value; cited from earlier work

FC(F)(F)C(Cl)Br (centres unmarked) [halothane]
IC50: 0.05 to 10 mM

CCN(CC)CC(=O)Nc1c(C)cccc1C [lidocaine]
IC50: 0.05 to 10 mM
